PubChem BioAssay AID1053208, Peter MacCallum Cancer Centre, 2014
This is an unselected part of about 17,000 reagents. Of all reagents, 788 (4.7%) are marked active. 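Calls rest on z-score classes alone; an extra cut-off of viability at most 70% of control was not applied to them.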

Purpose: 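Synthetic lethal interactions between gene loss and doxorubicin in osteosarcoma cells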 (primary screen)
Cells: mouse osteosarcoma cells, early-passage culture from an engineered mouse model of fibroblastic bone tumour
Reagents: siRNA pool against mouse genes, 40 nM
Time to read-out: about 120 h (48 h before drug, then 72 h with drug)
Treatment: doxorubicin 100 nM for 72 h, roughly 30-40% inhibitory dose
Detection: 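Luminescent ATP signal taken as viability with or without 100 nM doxorubicin for 72 h; mean of two wells set against non-targeting siRNA and turned into robust z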
Reading the numbers: viability z-score with doxorubicin and doxorubicin viability vs non-targeting: higher = more viable cells under doxorubicin; viability z-score without drug: higher = more viable cells with knock-down alone; z-score of drug to no-drug ratio: higher = less drug sensitisation by knock-down
Rule for the call: 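Called active if knock-down leaves viability unchanged without drug (z within -2 to 2) but lowers it with doxorubicin (z at or under -2)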

| gene symbol | combined z-score class | viability z-score with doxorubicin | viability z-score without drug | z-score of drug to no-drug ratio | doxorubicin viability vs non-targeting | call |
| --- | --- | --- | --- | --- | --- | --- |
| Atf7ip (GeneID 54343) | no change with or without drug | -0.45 | 0 | -0.34 | 0.9 | inactive |
| Pitpnc1 (GeneID 71795) | high cell count without drug only | 0.9 | 3.04 | -0.9 | 1.02 | inactive |
| Eif5 (GeneID 217869) | no change with or without drug | 0.34 | 0.67 | 0 | 0.97 | inactive |
| Rsl1d1 (GeneID 66409) | high cell count without drug only | 1.57 | 3.2 | -0.34 | 1.08 | inactive |
| Mlf1 (GeneID 17349) | no change with or without drug | -0.22 | -0.17 | 0 | 0.92 | inactive |
| Phka2 (GeneID 110094) | no change with or without drug | -0.11 | -1.52 | 1.12 | 0.93 | inactive |
| Gpr155 (GeneID 68526) | no change with or without drug | 0.22 | -0.84 | 1.01 | 0.96 | inactive |
| Vmn1r17 (GeneID 171189) | no change with or without drug | 0 | -0.17 | 0.22 | 0.94 | inactive |
| Gtf2a1 (GeneID 83602) | no change with or without drug | -0.56 | 0.51 | -0.79 | 0.89 | inactive |
| Gpx2 (GeneID 14776) | low cell count without drug only | -0.34 | -2.53 | 1.8 | 0.91 | inactive |
| Itga8 (GeneID 241226) | no change with or without drug | 0.11 | -0.17 | 0.34 | 0.95 | inactive |
| Chrna7 (GeneID 11441) | no change with or without drug | -1.57 | -1.01 | -0.9 | 0.8 | inactive |
| Snn (GeneID 20621) | no change with or without drug | 0 | -0.17 | 0.22 | 0.94 | inactive |

Quoted from above for reference:
| gene symbol | combined z-score class | viability z-score with doxorubicin | viability z-score without drug | z-score of drug to no-drug ratio | doxorubicin viability vs non-targeting | call |
| --- | --- | --- | --- | --- | --- | --- |
| Gtf2a1 (GeneID 83602) | no change with or without drug | -0.56 | 0.51 | -0.79 | 0.89 | inactive |
| Gpx2 (GeneID 14776) | low cell count without drug only | -0.34 | -2.53 | 1.8 | 0.91 | inactive |

Further records follow:
| gene symbol | combined z-score class | viability z-score with doxorubicin | viability z-score without drug | z-score of drug to no-drug ratio | doxorubicin viability vs non-targeting | call |
| --- | --- | --- | --- | --- | --- | --- |
| Gmpr (GeneID 66355) | no change with or without drug | -1.12 | -0.84 | -0.56 | 0.84 | inactive |
| Inpp5a (GeneID 212111) | no change with or without drug | -0.45 | 0.17 | -0.45 | 0.9 | inactive |
| B4gat1 (GeneID 108902) | no change with or without drug | 1.57 | -1.01 | 2.59 | 1.08 | inactive |
| Il21r (GeneID 60504) | no change with or without drug | -0.67 | -1.85 | 0.79 | 0.88 | inactive |
| Foxq1 (GeneID 15220) | no change with or without drug | -0.79 | -0.84 | -0.11 | 0.87 | inactive |
| Lrrc9 (GeneID 78257) | no change with or without drug | -1.01 | 0.17 | -1.01 | 0.85 | inactive |
| Elob (GeneID 67673) | no change with or without drug | -1.8 | 1.18 | -2.47 | 0.78 | inactive |
